# The supplement of paper PMC4604168 (melanoma cell lines)
# This is one part of the list. Many values rest on one well or one pass, so single values are uncertain.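 Imaging used 1,536-well plates; nuclei positive for cleaved PARP by antibody were divided by total DNA-stained nuclei to yield the apoptosis fraction. Doses for screening kept most cells viable, and cell lines differ markedly in resting and induced cleaved-PARP levels.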
# How the values were obtained:
# Assay in all cases: cleaved PARP positive nuclei fraction relative to DMSO control; melanoma cells; higher = more apoptosis
# Conditions in all cases: library dose: low library concentration; 72 h
# [1] = tested on: 501Mel
# [2] = tested on: A101D
# [3] = tested on: A2058
# [4] = tested on: A375
# [5] = tested on: C32
# [6] = tested on: CBRC008 (line from a melanoma biopsy)
# [7] = tested on: CBRC014 (line from a melanoma biopsy)
# [8] = tested on: CBRC016 (line from a melanoma biopsy)
# [9] = tested on: CBRC017 (line from a melanoma biopsy)
Compound,cleaved PARP positive nuclei fraction [1] [%],cleaved PARP positive nuclei fraction [2] [%],cleaved PARP positive nuclei fraction [3] [%],cleaved PARP positive nuclei fraction [4] [%],cleaved PARP positive nuclei fraction [5] [%],cleaved PARP positive nuclei fraction [6] [%],cleaved PARP positive nuclei fraction [7] [%],cleaved PARP positive nuclei fraction [8] [%],cleaved PARP positive nuclei fraction [9] [%]
"Cc1cn(-c2cc(NC(=O)c3ccc(C)c(Nc4nccc(-c5cccnc5)n4)c3)cc(C(F)(F)F)c2)cn1 [nilotinib] + COc1ccc(Cl)c(Nc2nc3ccccc3nc2NS(=O)(=O)c2cccc(NC(=O)C(C)(C)N)c2)c1 [XL147] (first compound 0.2 µM, partner dose 0.8 µM)",125,93.3,105,54.1,245,365,119,270,109
"N#CC[C@H](C1CCCC1)n1cc(-c2ncnc3[nH]ccc23)cn1 [ruxolitinib] + C=CCNC1=C2C[C@@H](C)C[C@H](OC)[C@H](O)[C@@H](C)/C=C(\C)[C@H](OC(N)=O)[C@@H](OC)/C=C\C=C(/C)C(=O)NC(=CC1=O)C2=O [Tanespimycin] (first compound 1 µM, partner dose 0.002 µM)",142,130,321,78.7,89.3,158,125,76.4,115
"CC[C@]1(O)C[C@H]2CN(CCc3c([nH]c4ccccc34)[C@@](C(=O)OC)(c3cc4c(cc3OC)N(C=O)[C@H]3[C@@](O)(C(=O)OC)[C@H](OC(C)=O)[C@]5(CC)C=CCN6CC[C@]43[C@@H]65)C2)C1 [vincristine] + COc1ccc(C2=N[C@@H](c3ccc(Cl)cc3)[C@@H](c3ccc(Cl)cc3)N2C(=O)N2CCNC(=O)C2)c(OC(C)C)c1 [Nutlin-3] (first compound 0.0001 µM, partner dose 0.1 µM)",199,236,949,529,109,122,107,95.6,114
"O=c1[nH]nc(Sc2ncc([N+](=O)[O-])s2)n1-c1ccc2c(c1)OCCO2 + CCCCCCCCc1ccc(CCC(N)(CO)CO)cc1 [fingolimod] (first compound 0.2 µM, partner dose 2 µM)",168,87.8,72.3,100,146,65.4,87.2,143,124
"CCCCCCCCCCCCCCCCCCOP(=O)([O-])OC1CC[N+](C)(C)CC1 [Perifosine] + Cn1sc(=O)n(Cc2ccccc2)c1=O [TDZD-8] (first compound 0.4 µM, partner dose 0.4 µM)",120,104,121,109,86.9,43.2,98.8,33.6,168
"O=C(/C=C/c1cccnc1)NCCCCC1CCN(C(=O)c2ccccc2)CC1 + Cc1cn(-c2cc(NC(=O)c3ccc(C)c(Nc4nccc(-c5cccnc5)n4)c3)cc(C(F)(F)F)c2)cn1 [nilotinib] (first compound 0.01 µM, partner dose 0.2 µM)",101,64.1,193,119,84.3,6100,116,705,2080
"Cc1cc(Nc2cc(N3CCN(C)CC3)nc(Sc3ccc(NC(=O)C4CC4)cc3)n2)n[nH]1 [Tozasertib] + OCc1c[nH]c2ccccc12 [Indole-3-carbinol] (first compound 0.006 µM, partner dose 0.8 µM)",289,71,83.5,53.5,83.4,172,96.8,59.7,54.3
"O=c1[nH]nc(Sc2ncc([N+](=O)[O-])s2)n1-c1ccc2c(c1)OCCO2 + Clc1ccc(Nc2nnc(Cc3ccncc3)c3ccccc23)cc1 [vatalanib] (first compound 0.2 µM, partner dose 2 µM)",241,45.5,282,97.2,253,42.1,106,118,301
"O=C(/C=C/c1cccnc1)NCCCCC1CCN(C(=O)c2ccccc2)CC1 + NC(=O)c1ccc(N(C(N)=O)c2c(F)cccc2F)nc1-c1ccc(F)cc1F [VX702] (first compound 0.01 µM, partner dose 0.4 µM)",116,244,116,85.4,200,3070,129,348,505
"Cc1ccc(Nc2nccc(N(C)c3ccc4c(C)n(C)nc4c3)n2)cc1S(N)(=O)=O [Pazopanib] + CCCCCCCCc1ccc(CCC(N)(CO)CO)cc1 [fingolimod] (first compound 0.4 µM, partner dose 2 µM)",92.5,148,67.3,102,141,112,104,79.3,126
"CC[C@]1(O)C[C@H]2CN(CCc3c([nH]c4ccccc34)[C@@](C(=O)OC)(c3cc4c(cc3OC)N(C=O)[C@H]3[C@@](O)(C(=O)OC)[C@H](OC(C)=O)[C@]5(CC)C=CCN6CC[C@]43[C@@H]65)C2)C1 [vincristine] + Clc1ccc(Nc2nnc(Cc3ccncc3)c3ccccc23)cc1 [vatalanib] (first compound 0.0001 µM, partner dose 2 µM)",123,67.9,2570,539,360,178,152,186,136
"CC[C@]1(O)C[C@H]2CN(CCc3c([nH]c4ccccc34)[C@@](C(=O)OC)(c3cc4c(cc3OC)N(C=O)[C@H]3[C@@](O)(C(=O)OC)[C@H](OC(C)=O)[C@]5(CC)C=CCN6CC[C@]43[C@@H]65)C2)C1 [vincristine] + Cn1sc(=O)n(Cc2ccccc2)c1=O [TDZD-8] (first compound 0.0001 µM, partner dose 0.4 µM)",71,89.3,178,142,75.5,121,189,73.9,96.8
"O=C(Nc1cc(C(F)(F)F)cc(C(F)(F)F)c1)c1cc(Cl)ccc1O + CCCCCCCCc1ccc(CCC(N)(CO)CO)cc1 [fingolimod] (first compound 0.016 µM, partner dose 2 µM)",163,42.9,161,122,175,23.8,107,298,113
"O=C(/C=C/c1cccnc1)NCCCCC1CCN(C(=O)c2ccccc2)CC1 + CCCS(=O)(=O)Nc1ccc(F)c(C(=O)c2c[nH]c3ncc(Cl)cc23)c1F [PLX4720] (first compound 0.01 µM, partner dose 0.08 µM)",50.7,117,55.3,89.1,122,3250,116,1920,829
"O=C(Nc1cc(C(F)(F)F)cc(C(F)(F)F)c1)c1cc(Cl)ccc1O + CC1(C)CCC(c2ccc(Cl)cc2)=C(CN2CCN(c3ccc(C(=O)NS(=O)(=O)c4ccc(N[C@H](CCN5CCOCC5)CSc5ccccc5)c(S(=O)(=O)C(F)(F)F)c4)cc3)CC2)C1 [ABT263] (first compound 0.016 µM, partner dose 0.4 µM)",179,160,192,267,105,519,305,1070,474
"COc1cc([C@@H]2c3cc4c(cc3[C@@H](O[C@@H]3O[C@@H]5CO[C@@H](C)O[C@H]5[C@H](O)[C@H]3O)[C@H]3COC(=O)[C@H]23)OCO4)cc(OC)c1O [etoposide] + CCN(CC)CCNC(=O)c1c(C)[nH]c(/C=C2\C(=O)Nc3ccc(F)cc32)c1C [sunitinib] (first compound 0.02 µM, partner dose 0.4 µM)",67.4,44.2,168,233,74,46.9,89.3,44.6,69.6
"O=C(/C=C/c1cccnc1)NCCCCC1CCN(C(=O)c2ccccc2)CC1 + C[C@@H](Oc1cc(-c2cnn(C3CCNCC3)c2)cnc1N)c1c(Cl)ccc(F)c1Cl [Crizotinib] (first compound 0.01 µM, partner dose 0.2 µM)",85.1,44,47.1,98.8,137,7390,104,1670,514
"Cc1cc(Nc2cc(N3CCN(C)CC3)nc(Sc3ccc(NC(=O)C4CC4)cc3)n2)n[nH]1 [Tozasertib] + COCC[n+]1c2c(n(Cc3cnccn3)c1C)C(=O)c1ccccc1C2=O [YM155] (first compound 0.006 µM, partner dose 0.0004 µM)",82.5,133,51.6,202,90.1,733,86.7,79.4,88.5
"Cc1ccc(Nc2nccc(N(C)c3ccc4c(C)n(C)nc4c3)n2)cc1S(N)(=O)=O [Pazopanib] + Cn1c(=O)n(-c2ccc(C(C)(C)C#N)cc2)c2c3cc(-c4cnc5ccccc5c4)ccc3ncc21 [NVP-BEZ235] (first compound 0.4 µM, partner dose 0.004 µM)",83.4,59.4,42.5,21.8,75.3,80.5,104,142,119
"Cc1cc(Nc2cc(N3CCN(C)CC3)nc(Sc3ccc(NC(=O)C4CC4)cc3)n2)n[nH]1 [Tozasertib] + C[C@]1(O)C[C@@H](c2nc(-c3ccc4ccc(-c5ccccc5)nc4c3)c3c(N)nccn32)C1 [OSI906] (first compound 0.006 µM, partner dose 0.4 µM)",51,408,69.3,576,81.3,101,93.6,95.8,156

# A section taken from the entries so far:
Compound,cleaved PARP positive nuclei fraction [1] [%],cleaved PARP positive nuclei fraction [2] [%],cleaved PARP positive nuclei fraction [3] [%],cleaved PARP positive nuclei fraction [4] [%],cleaved PARP positive nuclei fraction [5] [%],cleaved PARP positive nuclei fraction [6] [%],cleaved PARP positive nuclei fraction [7] [%],cleaved PARP positive nuclei fraction [8] [%],cleaved PARP positive nuclei fraction [9] [%]
"CC[C@]1(O)C[C@H]2CN(CCc3c([nH]c4ccccc34)[C@@](C(=O)OC)(c3cc4c(cc3OC)N(C=O)[C@H]3[C@@](O)(C(=O)OC)[C@H](OC(C)=O)[C@]5(CC)C=CCN6CC[C@]43[C@@H]65)C2)C1 [vincristine] + Clc1ccc(Nc2nnc(Cc3ccncc3)c3ccccc23)cc1 [vatalanib] (first compound 0.0001 µM, partner dose 2 µM)",123,67.9,2570,539,360,178,152,186,136
"CC[C@]1(O)C[C@H]2CN(CCc3c([nH]c4ccccc34)[C@@](C(=O)OC)(c3cc4c(cc3OC)N(C=O)[C@H]3[C@@](O)(C(=O)OC)[C@H](OC(C)=O)[C@]5(CC)C=CCN6CC[C@]43[C@@H]65)C2)C1 [vincristine] + Cn1sc(=O)n(Cc2ccccc2)c1=O [TDZD-8] (first compound 0.0001 µM, partner dose 0.4 µM)",71,89.3,178,142,75.5,121,189,73.9,96.8
